Assay results from paper PMC3923796.
Results are given in words; binding and its absence hold for the method and conditions named. Binding seen in cells or lysates may run through a third protein. Binding can be weak; no strength is given.

Target: T1, calcium and integrin binding protein-1 (CIB1) (human (endogenous in HMVEC-d)) (UniProt Q99828)
T1 sequence: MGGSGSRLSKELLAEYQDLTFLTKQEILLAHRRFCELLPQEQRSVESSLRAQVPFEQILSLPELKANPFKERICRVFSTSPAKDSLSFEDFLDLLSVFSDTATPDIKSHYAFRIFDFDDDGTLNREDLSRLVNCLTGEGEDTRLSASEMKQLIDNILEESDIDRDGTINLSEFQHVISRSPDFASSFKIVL
Experiment: co-IP; 200 µg lysate of serum-starved HMVEC-d cells (25 mM Tris-HCl pH 7.5, 150 mM NaCl, 1% NP40, 2 mM EDTA, 10% glycerol), overnight at 4°C with anti-CIB1 or anti-EphA2 antibody, protein G-sepharose, Western blot; cells mock or KSHV infected (5, 10, 30 min), infected with heparin-treated KSHV, or CIB1-shRNA transduced

binding: binds
Substance: PI3-K (human (endogenous in HMVEC-d)) (enzyme)
